Data as given in the supplement of paper PMC10849652.
This is one part of the list.

Protein sequences, listed by entry. Tags and fused reporters are not part of them. Lines headed by an entry give the natural chain unless they say otherwise; changes in a name come on top.
UniProt O75940: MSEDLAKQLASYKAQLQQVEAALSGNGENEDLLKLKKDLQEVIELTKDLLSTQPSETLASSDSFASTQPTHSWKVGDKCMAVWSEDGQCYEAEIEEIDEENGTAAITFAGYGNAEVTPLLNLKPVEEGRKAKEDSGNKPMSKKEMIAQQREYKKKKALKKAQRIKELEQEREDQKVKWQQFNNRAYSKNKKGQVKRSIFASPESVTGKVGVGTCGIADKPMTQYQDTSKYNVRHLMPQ
UniProt Q13573: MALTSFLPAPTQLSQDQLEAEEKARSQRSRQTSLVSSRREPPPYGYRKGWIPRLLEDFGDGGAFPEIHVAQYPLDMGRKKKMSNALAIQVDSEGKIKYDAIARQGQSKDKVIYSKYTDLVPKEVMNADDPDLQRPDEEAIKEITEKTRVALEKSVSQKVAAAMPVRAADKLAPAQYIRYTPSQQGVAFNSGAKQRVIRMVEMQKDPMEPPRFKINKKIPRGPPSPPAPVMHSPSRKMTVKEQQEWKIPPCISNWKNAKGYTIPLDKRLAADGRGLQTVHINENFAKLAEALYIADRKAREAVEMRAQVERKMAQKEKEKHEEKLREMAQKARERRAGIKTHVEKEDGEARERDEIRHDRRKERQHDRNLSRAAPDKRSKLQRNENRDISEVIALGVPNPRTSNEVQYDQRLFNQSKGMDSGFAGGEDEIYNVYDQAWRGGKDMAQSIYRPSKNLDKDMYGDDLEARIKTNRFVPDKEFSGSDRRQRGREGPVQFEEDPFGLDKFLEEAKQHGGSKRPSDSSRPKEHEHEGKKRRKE
UniProt Q9H0W8: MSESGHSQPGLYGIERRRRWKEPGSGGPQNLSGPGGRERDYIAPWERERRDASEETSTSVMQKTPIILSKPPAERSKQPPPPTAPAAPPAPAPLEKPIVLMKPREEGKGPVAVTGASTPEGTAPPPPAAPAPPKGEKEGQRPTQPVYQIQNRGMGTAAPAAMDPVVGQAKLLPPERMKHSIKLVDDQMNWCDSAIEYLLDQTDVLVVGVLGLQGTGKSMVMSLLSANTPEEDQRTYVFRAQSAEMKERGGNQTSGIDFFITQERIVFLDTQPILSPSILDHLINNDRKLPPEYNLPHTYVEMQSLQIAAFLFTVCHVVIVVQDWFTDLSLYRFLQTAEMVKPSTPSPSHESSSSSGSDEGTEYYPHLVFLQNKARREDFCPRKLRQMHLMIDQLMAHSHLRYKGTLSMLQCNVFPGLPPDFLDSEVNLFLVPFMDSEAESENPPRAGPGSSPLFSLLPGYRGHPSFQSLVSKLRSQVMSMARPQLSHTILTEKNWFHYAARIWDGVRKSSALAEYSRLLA
UniProt O60264, whole entry, looked up: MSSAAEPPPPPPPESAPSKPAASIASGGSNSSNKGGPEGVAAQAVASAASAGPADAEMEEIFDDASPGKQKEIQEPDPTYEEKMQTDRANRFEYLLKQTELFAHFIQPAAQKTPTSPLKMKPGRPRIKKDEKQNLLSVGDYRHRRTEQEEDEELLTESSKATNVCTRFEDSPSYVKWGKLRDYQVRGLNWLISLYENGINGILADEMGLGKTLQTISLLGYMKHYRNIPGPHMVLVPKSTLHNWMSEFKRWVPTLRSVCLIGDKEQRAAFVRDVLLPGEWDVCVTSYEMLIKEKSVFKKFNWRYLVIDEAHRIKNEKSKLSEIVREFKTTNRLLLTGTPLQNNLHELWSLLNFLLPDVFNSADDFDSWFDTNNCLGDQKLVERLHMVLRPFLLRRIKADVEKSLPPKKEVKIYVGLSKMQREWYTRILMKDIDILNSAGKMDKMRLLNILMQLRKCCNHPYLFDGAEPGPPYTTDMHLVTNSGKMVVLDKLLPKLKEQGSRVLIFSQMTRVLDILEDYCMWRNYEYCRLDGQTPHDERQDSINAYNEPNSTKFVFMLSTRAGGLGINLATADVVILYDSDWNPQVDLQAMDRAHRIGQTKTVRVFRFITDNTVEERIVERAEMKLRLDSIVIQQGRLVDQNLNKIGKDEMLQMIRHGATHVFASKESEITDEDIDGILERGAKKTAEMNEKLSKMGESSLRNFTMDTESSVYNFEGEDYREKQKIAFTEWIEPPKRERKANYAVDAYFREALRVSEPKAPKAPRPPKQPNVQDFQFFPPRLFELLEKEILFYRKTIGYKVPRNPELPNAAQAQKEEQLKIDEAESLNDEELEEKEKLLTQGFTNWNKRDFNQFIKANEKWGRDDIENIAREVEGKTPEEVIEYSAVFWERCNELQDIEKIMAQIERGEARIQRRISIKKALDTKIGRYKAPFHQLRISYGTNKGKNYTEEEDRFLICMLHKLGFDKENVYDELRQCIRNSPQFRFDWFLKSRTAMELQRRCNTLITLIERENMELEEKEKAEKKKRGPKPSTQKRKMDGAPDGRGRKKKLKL
UniProt O95721: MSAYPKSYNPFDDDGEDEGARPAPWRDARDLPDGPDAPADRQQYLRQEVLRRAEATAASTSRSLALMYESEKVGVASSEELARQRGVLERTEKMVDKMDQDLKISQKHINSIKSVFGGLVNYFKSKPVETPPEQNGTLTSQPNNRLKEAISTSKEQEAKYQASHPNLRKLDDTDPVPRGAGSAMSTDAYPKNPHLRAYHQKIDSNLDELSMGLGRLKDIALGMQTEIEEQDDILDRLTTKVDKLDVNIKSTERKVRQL
UniProt Q92925, whole entry, looked up: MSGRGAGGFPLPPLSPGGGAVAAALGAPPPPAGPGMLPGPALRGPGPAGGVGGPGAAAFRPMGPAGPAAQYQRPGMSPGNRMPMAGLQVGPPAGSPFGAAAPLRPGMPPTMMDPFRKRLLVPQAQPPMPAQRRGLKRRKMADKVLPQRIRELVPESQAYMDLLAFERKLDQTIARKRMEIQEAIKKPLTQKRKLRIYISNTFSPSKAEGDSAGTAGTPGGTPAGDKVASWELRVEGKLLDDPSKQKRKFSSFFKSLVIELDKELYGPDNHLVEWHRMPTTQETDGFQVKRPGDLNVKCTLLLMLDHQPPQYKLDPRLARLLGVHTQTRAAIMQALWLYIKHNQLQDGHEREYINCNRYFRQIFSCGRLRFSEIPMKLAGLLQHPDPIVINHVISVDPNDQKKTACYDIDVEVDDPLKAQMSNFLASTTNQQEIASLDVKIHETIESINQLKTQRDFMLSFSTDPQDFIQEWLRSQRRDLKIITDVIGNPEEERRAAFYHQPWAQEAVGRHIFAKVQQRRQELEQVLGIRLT
UniProt Q96R06: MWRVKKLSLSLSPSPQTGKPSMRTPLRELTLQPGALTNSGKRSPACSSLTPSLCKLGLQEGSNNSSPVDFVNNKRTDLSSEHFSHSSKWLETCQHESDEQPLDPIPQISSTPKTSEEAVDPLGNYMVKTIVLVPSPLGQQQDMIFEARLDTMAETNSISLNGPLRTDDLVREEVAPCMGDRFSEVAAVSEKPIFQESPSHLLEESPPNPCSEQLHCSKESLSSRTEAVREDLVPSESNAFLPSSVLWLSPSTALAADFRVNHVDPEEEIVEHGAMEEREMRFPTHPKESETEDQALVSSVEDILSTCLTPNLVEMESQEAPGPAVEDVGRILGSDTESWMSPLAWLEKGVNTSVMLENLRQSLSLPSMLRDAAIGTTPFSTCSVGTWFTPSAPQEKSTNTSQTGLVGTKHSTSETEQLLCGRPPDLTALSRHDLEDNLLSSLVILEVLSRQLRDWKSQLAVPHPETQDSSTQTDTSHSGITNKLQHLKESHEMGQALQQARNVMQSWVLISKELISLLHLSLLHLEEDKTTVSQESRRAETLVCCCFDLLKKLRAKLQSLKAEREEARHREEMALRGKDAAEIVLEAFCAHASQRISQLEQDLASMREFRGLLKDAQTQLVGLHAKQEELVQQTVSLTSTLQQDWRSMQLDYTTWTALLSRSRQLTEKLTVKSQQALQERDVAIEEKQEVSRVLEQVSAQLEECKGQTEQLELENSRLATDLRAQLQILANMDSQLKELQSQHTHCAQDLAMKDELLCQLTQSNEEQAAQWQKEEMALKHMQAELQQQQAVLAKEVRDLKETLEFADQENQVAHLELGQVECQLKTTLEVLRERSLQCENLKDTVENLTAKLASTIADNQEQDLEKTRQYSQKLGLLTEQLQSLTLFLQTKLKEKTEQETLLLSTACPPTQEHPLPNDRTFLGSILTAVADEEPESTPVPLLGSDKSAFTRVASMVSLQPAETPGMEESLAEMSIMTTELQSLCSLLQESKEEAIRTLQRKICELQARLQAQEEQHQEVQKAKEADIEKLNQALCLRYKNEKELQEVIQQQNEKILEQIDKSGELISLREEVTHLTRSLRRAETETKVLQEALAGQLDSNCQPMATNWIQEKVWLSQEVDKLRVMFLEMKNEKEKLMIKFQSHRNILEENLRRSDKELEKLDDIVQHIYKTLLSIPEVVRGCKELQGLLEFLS
UniProt Q96H20: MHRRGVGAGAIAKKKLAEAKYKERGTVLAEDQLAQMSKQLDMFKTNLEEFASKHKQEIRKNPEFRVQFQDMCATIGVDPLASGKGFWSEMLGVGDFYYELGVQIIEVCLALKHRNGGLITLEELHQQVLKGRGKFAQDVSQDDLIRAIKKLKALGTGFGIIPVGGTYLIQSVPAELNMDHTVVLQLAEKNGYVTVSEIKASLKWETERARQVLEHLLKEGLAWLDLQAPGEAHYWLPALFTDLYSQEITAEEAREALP
UniProt P00441, whole entry, looked up: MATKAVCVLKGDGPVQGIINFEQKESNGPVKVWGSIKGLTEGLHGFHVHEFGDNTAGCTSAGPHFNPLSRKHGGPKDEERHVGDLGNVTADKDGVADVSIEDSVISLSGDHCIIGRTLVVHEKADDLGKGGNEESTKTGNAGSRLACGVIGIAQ
UniProt Q96SB8: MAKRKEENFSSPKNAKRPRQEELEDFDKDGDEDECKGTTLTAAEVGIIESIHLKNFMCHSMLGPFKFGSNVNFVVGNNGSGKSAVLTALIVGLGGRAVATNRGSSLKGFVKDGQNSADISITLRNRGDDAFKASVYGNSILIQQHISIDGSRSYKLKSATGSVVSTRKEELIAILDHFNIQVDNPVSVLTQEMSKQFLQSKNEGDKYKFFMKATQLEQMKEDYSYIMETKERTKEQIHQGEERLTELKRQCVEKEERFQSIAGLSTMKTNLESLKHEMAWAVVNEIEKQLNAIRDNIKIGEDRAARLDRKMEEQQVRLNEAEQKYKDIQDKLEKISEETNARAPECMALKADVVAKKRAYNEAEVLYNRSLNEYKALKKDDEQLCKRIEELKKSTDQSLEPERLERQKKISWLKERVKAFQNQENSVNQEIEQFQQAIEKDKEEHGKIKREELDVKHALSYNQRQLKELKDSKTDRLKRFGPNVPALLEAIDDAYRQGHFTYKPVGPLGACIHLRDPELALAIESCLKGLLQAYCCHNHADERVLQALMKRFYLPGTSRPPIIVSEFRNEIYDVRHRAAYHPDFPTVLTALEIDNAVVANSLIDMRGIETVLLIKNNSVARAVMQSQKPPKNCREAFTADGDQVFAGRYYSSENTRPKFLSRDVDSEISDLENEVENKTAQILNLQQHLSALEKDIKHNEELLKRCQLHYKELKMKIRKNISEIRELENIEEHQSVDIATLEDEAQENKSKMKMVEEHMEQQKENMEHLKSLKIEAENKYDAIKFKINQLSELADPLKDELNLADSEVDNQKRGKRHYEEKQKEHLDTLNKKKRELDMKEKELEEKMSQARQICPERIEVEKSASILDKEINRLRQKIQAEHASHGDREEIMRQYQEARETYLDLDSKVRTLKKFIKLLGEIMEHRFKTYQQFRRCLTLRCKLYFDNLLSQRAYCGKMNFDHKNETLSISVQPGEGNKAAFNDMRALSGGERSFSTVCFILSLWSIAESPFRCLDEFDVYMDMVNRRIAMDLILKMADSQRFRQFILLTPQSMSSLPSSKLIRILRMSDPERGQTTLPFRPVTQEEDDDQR
UniProt P09012, whole entry, looked up: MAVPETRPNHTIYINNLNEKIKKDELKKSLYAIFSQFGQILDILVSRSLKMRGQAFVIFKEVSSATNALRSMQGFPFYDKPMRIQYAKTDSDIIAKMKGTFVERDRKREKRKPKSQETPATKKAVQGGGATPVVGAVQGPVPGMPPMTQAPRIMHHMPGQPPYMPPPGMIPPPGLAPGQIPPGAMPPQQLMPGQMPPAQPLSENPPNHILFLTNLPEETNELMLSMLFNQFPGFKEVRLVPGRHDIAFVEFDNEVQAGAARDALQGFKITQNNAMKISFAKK
UniProt Q15036: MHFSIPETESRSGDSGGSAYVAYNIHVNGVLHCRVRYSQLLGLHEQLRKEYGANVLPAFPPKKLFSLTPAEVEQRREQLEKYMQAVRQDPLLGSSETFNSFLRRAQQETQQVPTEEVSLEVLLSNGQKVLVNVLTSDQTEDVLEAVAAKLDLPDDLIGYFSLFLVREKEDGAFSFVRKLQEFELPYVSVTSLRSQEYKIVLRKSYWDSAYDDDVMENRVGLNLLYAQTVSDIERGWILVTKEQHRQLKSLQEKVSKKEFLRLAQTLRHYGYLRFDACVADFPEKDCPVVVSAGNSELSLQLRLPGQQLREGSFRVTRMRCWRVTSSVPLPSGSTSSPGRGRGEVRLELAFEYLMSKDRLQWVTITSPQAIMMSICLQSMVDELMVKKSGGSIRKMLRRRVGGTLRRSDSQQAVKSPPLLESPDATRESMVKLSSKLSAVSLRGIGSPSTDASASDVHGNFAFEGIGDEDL

Experiments:
Assay in all cases: log2 fold change, soluble protein after heating vs DMSO (PISA); higher = thermal stabilisation; K562 lysate, 10 uM; active = over 0.2 and 3.5 SD of the protein, either way, in both replicates (recomputed)
[1] = compound: CS(=O)(=O)CCNCc1ccc(-c2ccc3ncnc(Nc4ccc(OCc5cccc(F)c5)c(Cl)c4)c3c2)o1 [lapatinib]
Method in brief: (§1)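 A 30 min treatment with 10 μM compound was applied to crude K562 extract at 1 mg/mL protein in PBS pH 7.4 with 1 mM MgCl2. Heating for 3 min spanned 48°C-58°C, after which aliquots were pooled, adjusted to 0.5% NP-40 at 4°C and spun at 21,000xg for 90 min. TMTpro 16plex LC-MS/MS of the supernatant, with channel sums equalised, gave values recorded as log-two fold change in thermal stability against solvent controls, from duplicates.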

[2] = compound: CS(=O)(=O)N1CCN(Cc2cc3nc(-c4cccc5[nH]ncc45)nc(N4CCOCC4)c3s2)CC1 [pictilisib]
Method in brief: as §1

[3] = compound: C[C@@H](Oc1cc(-c2cnn(C3CCNCC3)c2)cnc1N)c1c(Cl)ccc(F)c1Cl [crizotinib]
Method in brief: as §1

[4] = compound: C[C@H](C1=CC=C(C=C1)C(=O)NC2=C3C=CNC3=NC=C2)N
Method in brief: as §1

[5] = compound: C[C@H](Nc1ncnc2nc[nH]c12)c1cc2cccc(Cl)c2c(=O)n1-c1ccccc1 [duvelisib]
Method in brief: as §1

[6] = compound: Cc1cc(Nc2cc(CN3CCOCC3)c3nc(C)c(Cc4ccc(Cl)cc4F)n3n2)n[nH]1 [gandotinib]
Method in brief: as §1

[7] = compound: Cc1cc(Nc2cc(N3CCN(C)CC3)nc(Sc3ccc(NC(=O)C4CC4)cc3)n2)n[nH]1 [tozasertib]
Method in brief: as §1

[8] = compound: Cc1ccc(-n2nc(C(C)(C)C)cc2NC(=O)Nc2ccc(OCCN3CCOCC3)c3ccccc23)cc1 [doramapimod]
Method in brief: as §1

[9] = compound: Cc1ccc(NC(=O)c2ccc(CN3CC[C@H](N(C)C)C3)c(C(F)(F)F)c2)cc1Nc1nccc(-c2cncnc2)n1 [bafetinib]
Method in brief: as §1

[10] = compound: Cc1cccc(CC(=O)N2CCc3c2ccc(-c2cn(C)c4ncnc(N)c24)c3F)n1
Method in brief: as §1

[11] = compound: Cc1cn(-c2cc(NC(=O)c3ccc(C)c(Nc4nccc(-c5cccnc5)n4)c3)cc(C(F)(F)F)c2)cn1 [nilotinib]
Method in brief: as §1

[12] = compound: Cc1nc(Nc2n[nH]c3c2CN(C(=O)N[C@H](CN(C)C)c2ccccc2)C3(C)C)c2sccc2n1
Method in brief: as §1

[13] = compound: Cc1nc(Nc2ncc(C(=O)Nc3c(C)cccc3Cl)s2)cc(N2CCN(CCO)CC2)n1 [dasatinib]
Method in brief: as §1

[14] = compound: Cc1ncc(-c2ccnc(Nc3ccc(S(C)(=O)=O)cc3)n2)n1C(C)C
Method in brief: as §1

[15] = compound: Cn1cc(-c2ccc3c(c2)CCN3C(=O)Cc2cccc(C(F)(F)F)c2)c2c(N)ncnc21
Method in brief: as §1

[16] = compound: Cn1cc(CNCC2CCN(c3ncc(C(=O)NO)cn3)CC2)c2ccccc21 [quisinostat]
Method in brief: as §1

[17] = compound: Cn1cncc1[C@@](N)(c1ccc(Cl)cc1)c1ccc2c(c1)c(-c1cccc(Cl)c1)cc(=O)n2C [tipifarnib]
Method in brief: as §1

[18] = compound: NC(=O)Nc1cc(-c2cccc(F)c2)sc1C(=O)N[C@H]1CCCNC1
Method in brief: as §1

[19] = compound: NC(=O)c1cnc(N[C@@H]2CCCC[C@@H]2N)nc1Nc1cccc(-n2nccn2)c1
Method in brief: as §1

[20] = compound: NC1(c2ccc(-c3nc4ccn5c(=O)[nH]nc5c4cc3-c3ccccc3)cc2)CCC1
Method in brief: as §1

Target	log2 fold change [1]	log2 fold change [2]	log2 fold change [3]	log2 fold change [4]	log2 fold change [5]	log2 fold change [6]	log2 fold change [7]	log2 fold change [8]	log2 fold change [9]	log2 fold change [10]	log2 fold change [11]	log2 fold change [12]	log2 fold change [13]	log2 fold change [14]	log2 fold change [15]	log2 fold change [16]	log2 fold change [17]	log2 fold change [18]	log2 fold change [19]	log2 fold change [20]
SMNDC1 (UniProt O75940)	inactive: -0.021	inactive: 0.034	inactive: -0.012	inactive: -0.028	inactive: -0.019	inactive: 0.022	inactive: -0.01	inactive: 0.018	inactive: -0.012	inactive: -0.04	inactive: 0.008	inactive: 0.017	inactive: 0.062	inactive: -0.003	inactive: -0.023	inactive: -0.066	inactive: -0.019	inactive: 0.009	inactive: 0.005	inactive: 0
SOAT1 (UniProt P35610)	inactive: 0.027	inactive: -0.004	inactive: -0.022	inactive: -0.079	inactive: -0.016	inactive: 0.005	inactive: 0.009	inactive: 0.157	inactive: 0.029	inactive: 0.141	active: 0.313	inactive: -0.019	inactive: 0.071	inactive: -0.065	inactive: -0.022	inactive: -0.12	inactive: 0.072	inactive: -0.042	inactive: 0.045	inactive: -0.013
SNW1 (UniProt Q13573)	inactive: 0.019	inactive: -0.002	inactive: 0.002	inactive: 0.155	inactive: -0.018	inactive: -0.037	inactive: -0.01	inactive: -0.002	inactive: -0.002	inactive: -0.007	inactive: 0.002	inactive: -0.009	inactive: 0.024	inactive: -0.036	inactive: -0.015	inactive: 0.012	inactive: 0.009	inactive: -0.016	inactive: -0.01	inactive: -0.01
SP100 isoform 4 (UniProt P23497)	inactive: -0.02	inactive: 0.002	inactive: 0.013	inactive: 0.032	inactive: 0.04	inactive: 0.02	inactive: -0.002	inactive: -0.007	inactive: -0.011	inactive: -0.014	inactive: -0.001	inactive: 0.022	inactive: 0.023	inactive: -0.032	inactive: 0.006	inactive: -0.027	inactive: -0.019	inactive: -0.022	inactive: 0.024	inactive: 0.035
SMG9 (UniProt Q9H0W8)	inactive: 0	inactive: -0.04	inactive: -0.058	inactive: -0.062	inactive: 0.012	inactive: -0.004	inactive: 0.027	inactive: -0.069	inactive: -0.067	inactive: 0.074	inactive: -0.024	inactive: 0.033	inactive: -0.081	inactive: -0.015	inactive: 0.057	inactive: -0.122	inactive: -0.011	inactive: 0.043	inactive: 0.021	inactive: -0.042
SMARCA5 (UniProt O60264)	inactive: -0.022	inactive: -0.041	inactive: 0.009	inactive: -0.016	inactive: 0.053	inactive: -0.066	inactive: 0.011	inactive: -0.009	inactive: -0.067	inactive: 0.026	inactive: -0.059	inactive: 0.03	inactive: -0.107	inactive: 0.006	inactive: 0.067	inactive: 0.024	inactive: -0.003	inactive: 0.034	inactive: 0.015	inactive: -0.01
SMYD2 (UniProt Q9NRG4)	inactive: -0.03	inactive: 0.009	inactive: -0.005	inactive: 0.046	inactive: 0.011	inactive: 0	inactive: 0.012	inactive: 0.02	inactive: 0.008	inactive: -0.038	inactive: 0.053	inactive: 0.013	inactive: -0.051	inactive: 0.027	inactive: -0.064	inactive: 0.055	inactive: 0.045	inactive: 0.009	inactive: 0.06	inactive: 0.063
SNAP29 (UniProt O95721)	inactive: 0.031	inactive: 0.093	inactive: 0.048	inactive: -0.034	inactive: -0.025	inactive: 0.107	inactive: 0.008	inactive: 0.073	inactive: -0.032	inactive: 0	inactive: 0.024	inactive: -0.014	inactive: 0.031	inactive: -0.023	inactive: -0.013	inactive: -0.044	inactive: -0.015	inactive: -0.011	inactive: -0.007	inactive: 0.031
SMARCD2 (UniProt Q92925)	inactive: -0.027	inactive: -0.051	inactive: -0.004	inactive: -0.069	inactive: 0.032	inactive: -0.002	inactive: 0.027	inactive: -0.034	inactive: 0	inactive: 0.046	inactive: 0.018	inactive: -0.018	inactive: -0.06	inactive: 0.01	inactive: 0.017	inactive: 0.01	inactive: 0.001	inactive: 0.017	inactive: -0.015	inactive: 0.043
SPAG5 (UniProt Q96R06)	inactive: 0.013	inactive: -0.004	inactive: -0.056	inactive: -0.016	inactive: 0.038	inactive: -0.11	inactive: 0.029	inactive: 0.036	inactive: -0.044	inactive: 0.058	inactive: 0.026	inactive: -0.013	inactive: -0.006	inactive: 0.001	inactive: 0.02	inactive: -0.051	inactive: -0.045	inactive: 0.001	inactive: 0.004	inactive: -0.008
SNF8 (UniProt Q96H20)	inactive: -0.007	inactive: -0.03	inactive: -0.009	inactive: 0.016	inactive: 0.025	inactive: -0.03	inactive: 0.012	inactive: -0.038	inactive: -0.04	inactive: 0.007	inactive: -0.023	inactive: 0.017	inactive: -0.03	inactive: 0.037	inactive: 0.053	inactive: 0.021	inactive: 0.014	inactive: -0.028	inactive: 0	inactive: 0.049
SOD1 (UniProt P00441)	inactive: 0.012	inactive: -0.05	inactive: 0.242	inactive: 0.148	inactive: -0.027	inactive: 0	inactive: -0.028	inactive: -0.094	inactive: -0.025	inactive: -0.127	inactive: -0.059	inactive: -0.008	inactive: 0.082	inactive: -0.264	inactive: 0	inactive: 0.009	inactive: 0.049	inactive: 0.041	inactive: -0.027	inactive: 0.033
SMC6 (UniProt Q96SB8)	inactive: -0.051	inactive: -0.06	inactive: -0.026	inactive: -0.039	inactive: 0.034	inactive: -0.002	inactive: 0.004	inactive: -0.011	inactive: 0.007	inactive: 0.029	inactive: 0.006	inactive: 0	inactive: -0.021	inactive: -0.019	inactive: 0.012	inactive: -0.012	inactive: -0.06	inactive: 0.034	inactive: 0.001	inactive: 0.013
SNRPA (UniProt P09012)	inactive: -0.03	inactive: 0.001	inactive: 0.004	inactive: -0.055	inactive: 0.009	inactive: 0.063	inactive: 0.007	inactive: -0.013	inactive: -0.004	inactive: 0.013	inactive: 0.009	inactive: -0.013	inactive: -0.002	inactive: -0.017	inactive: -0.014	inactive: 0.01	inactive: 0.006	inactive: -0.003	inactive: -0.004	inactive: -0.016
SP1 (UniProt P08047)	inactive: 0.077	inactive: 0.009	inactive: 0.022	inactive: -0.024	inactive: -0.063	inactive: 0.056	inactive: -0.049	inactive: 0.095	inactive: -0.027	inactive: 0.031	inactive: -0.035	inactive: -0.02	inactive: -0.028	inactive: 0.117	inactive: -0.019	inactive: 0.055	inactive: -0.031	inactive: -0.02	inactive: 0.008	inactive: 0.005
SNX17 (UniProt Q15036)	inactive: 0.02	inactive: -0.025	inactive: -0.039	inactive: 0.08	inactive: -0.049	inactive: -0.009	inactive: 0.02	inactive: -0.005	inactive: -0.067	inactive: -0.001	inactive: 0.053	inactive: 0.023	inactive: 0.049	inactive: 0.084	inactive: -0.017	inactive: 0.019	inactive: -0.011	inactive: -0.024	inactive: 0.004	inactive: -0.001

Some of the entries so far, as a markdown table.

| Target | log2 fold change [1] | log2 fold change [2] | log2 fold change [3] | log2 fold change [4] | log2 fold change [5] | log2 fold change [6] | log2 fold change [7] | log2 fold change [8] | log2 fold change [9] | log2 fold change [10] | log2 fold change [11] | log2 fold change [12] | log2 fold change [13] | log2 fold change [14] | log2 fold change [15] | log2 fold change [16] | log2 fold change [17] | log2 fold change [18] | log2 fold change [19] | log2 fold change [20] |
| --- | --- | --- | --- | --- | --- | --- | --- | --- | --- | --- | --- | --- | --- | --- | --- | --- | --- | --- | --- | --- |
| SNW1 (UniProt Q13573) | inactive: 0.019 | inactive: -0.002 | inactive: 0.002 | inactive: 0.155 | inactive: -0.018 | inactive: -0.037 | inactive: -0.01 | inactive: -0.002 | inactive: -0.002 | inactive: -0.007 | inactive: 0.002 | inactive: -0.009 | inactive: 0.024 | inactive: -0.036 | inactive: -0.015 | inactive: 0.012 | inactive: 0.009 | inactive: -0.016 | inactive: -0.01 | inactive: -0.01 |
| SMARCA5 (UniProt O60264) | inactive: -0.022 | inactive: -0.041 | inactive: 0.009 | inactive: -0.016 | inactive: 0.053 | inactive: -0.066 | inactive: 0.011 | inactive: -0.009 | inactive: -0.067 | inactive: 0.026 | inactive: -0.059 | inactive: 0.03 | inactive: -0.107 | inactive: 0.006 | inactive: 0.067 | inactive: 0.024 | inactive: -0.003 | inactive: 0.034 | inactive: 0.015 | inactive: -0.01 |
| SMARCD2 (UniProt Q92925) | inactive: -0.027 | inactive: -0.051 | inactive: -0.004 | inactive: -0.069 | inactive: 0.032 | inactive: -0.002 | inactive: 0.027 | inactive: -0.034 | inactive: 0 | inactive: 0.046 | inactive: 0.018 | inactive: -0.018 | inactive: -0.06 | inactive: 0.01 | inactive: 0.017 | inactive: 0.01 | inactive: 0.001 | inactive: 0.017 | inactive: -0.015 | inactive: 0.043 |
| SMC6 (UniProt Q96SB8) | inactive: -0.051 | inactive: -0.06 | inactive: -0.026 | inactive: -0.039 | inactive: 0.034 | inactive: -0.002 | inactive: 0.004 | inactive: -0.011 | inactive: 0.007 | inactive: 0.029 | inactive: 0.006 | inactive: 0 | inactive: -0.021 | inactive: -0.019 | inactive: 0.012 | inactive: -0.012 | inactive: -0.06 | inactive: 0.034 | inactive: 0.001 | inactive: 0.013 |
